Laboratory results from the supplement of paper PMC4683952.
Some of the results follow. No stated cut-off is given here; in the data, active = 2 or more and inactive = the rest. Most values lie within the scatter of the assay; repeated measurements hardly agree.

These molecules were tested on Lgr5 (MarsCy1-Lgr5-EGFP, U2OS) (assay: cell-surface Lgr5 expression (SCi1 fluorescence, background-subtracted) relative to WT DMSO (fold of DMSO control); higher = more Lgr5 at the plasma membrane). Conditions: U2OS MarsCy1-Lgr5-EGFP stable; treatment time: overnight; library: ActiProbe-5K (TimTec); 25 µM.

cell-surface Lgr5 expression, inactive:
COc1cc(C2c3cc4c(cc3OC3(O)CCCCC23)OCO4)cc(OC)c1OC (configuration not stated) 1.49
Nc1nnc(SCC(=O)N2CCOCC2)s1 1.29
CN(C)S(=O)(=O)Nc1nc2ccc(S(C)(=O)=O)cc2s1 1.1
O=S(=O)(Nc1nc2ccccc2s1)c1ccccc1 1.05
c1ccc2sc(CCc3nc4ccccc4s3)nc2c1 1.28
CCOC(=O)c1sc2nc3n(c(=O)c2c1C)CCCC3C(=O)OCC (configuration not stated) 1.38
O=C1NC(=O)/C(=C\c2ccc3cccnc3c2)S1 1.49
C1(=C([C@]([C@@H]([C@@H]2(C1=CCN(C2)CCC))c1cscc1)(C#N)C#N)N)C#N 1.24
Cc1n[nH]c(=O)nc1N/N=C/c1cccs1 0.951
Brc1ccc2c(c1)c1nc3ccccc3nc1n2CCc1ccccc1 1.71
CC1(C)CC(NC(=O)CCC2CCCCC2)CC(C)(CNC(=O)CCC2CCCCC2)C1 (configuration not stated) 1
C1(/c2c(cccc2)c2c1cccc2)=N/NC(=S)N 1.01
CC1(C)Nc2ccccc2-c2c1ss/c2=N/c1ccc(Cl)cc1Cl 1.02
NNc1cc(Cl)ccc1[N+](=O)[O-] 1.55
CC1CC(C)CN(C(=O)N2CCOCC2)C1 (configuration not stated) 1.22
CC1(C)OC(=O)N(CCCC(=O)[O-])C1(C)O (configuration not stated) 1.33
N#Cc1ccnc(Oc2ccc3c(c2)OCO3)c1 1.26
Clc1ccc(OC2CCCNC2)cc1 (configuration not stated) 1.09
CCC1(C)OC(=O)N(Cc2ccco2)C1(C)O (configuration not stated) 1.3
N#Cc1c(SCc2cccc(F)c2)nsc1SCc1cccc(F)c1 0.763
Brc1csc(-c2cc(Br)cs2)c1 1.03
CC(C)c1ccc(C2Oc3ccccc3C3CC(c4ccccc4)=NN32)cc1 (configuration not stated) 0.848
NC(=O)c1c(NC(=O)c2ccc(Br)o2)sc2c1CCCC2 1.12
NCCCn1cc(Cl)c([N+](=O)[O-])n1 1.43
CC1=Nc2c(ccc3cccnc23)C1(C)C 1.04
CCCCC1(CCCC)NC(=S)N(c2ccc(C)cc2)N1 1.13
Cc1[nH]nc2c1C1(CCSCC1)C(C#N)=C(N)O2 0.97
C=CCNc1nc(N2CCCCC2)nc(N2CCCCC2)n1 1.44
Cc1cc(N(C)N)n2c(nc3cc(F)c(F)cc32)c1C#N 0.968
CCN1CCC(=O)C(C)C1C (configuration not stated) 1.3
N#CCSc1nnc2c(n1)[nH]c1ccccc12 1.1
Cc1ccc(-c2nn(CN3CCC(c4ccccc4)C3)c(=S)n2-c2ccccc2)cc1 (configuration not stated) 1.27
O=c1[nH]nc(CSCc2ccc3nsnc3c2)[nH]1 0.973
CCOC(=O)c1csc(C)c1C 1.31
CCOC(=O)C1=C(C)NC(=O)NC1c1ccoc1 (configuration not stated) 1.35
C(O)(=O)[C@@H]1CS[C@](N1)(C)C 1.19
Cc1nn(C)c(C)c1CN1CCN(c2[nH]ncc2[N+](=O)[O-])CC1 1.17
C=CCn1nnn([C@H]2CC(=O)[C@@H]3OC[C@H]2O3)c1=S 0.785
Cc1cc(C)n(-c2ccc(=O)[nH]n2)n1 1.54
COc1ccc(S(=O)(=O)Nc2nc3ccc(S(C)(=O)=O)cc3s2)cc1 1.01
O=S(=O)(Nc1cccnc1)c1ccc(Br)cc1 1.03
Cn1c2c(c(=O)n(C)c1=O)COC2=O 1.25
COc1ccc(/C(=N/O)c2nccc3cc(OC)c(OC)cc23)cc1OC 1.15
CCc1cc(CC)c(/C=N/O)c(CC)c1/C=N\O 1.02
CC1(C)CCC(=O)c2nnn(-c3nonc3N)c21 0.74
CCCN1CCC(CC(=O)O)CC1 1.55
c1ccc(C2OCc3nonc3CO2)cc1 1.36
CCOc1ccc2c(c1)-c1c(sn(-c3ccc(C(C)C)cc3)c1=S)C(C)(C)N2 1.11
OCC/N=C1\CCCc2c1[nH]c1ccc(Cl)cc21 0.971
O=Cc1ccc(-c2ccc3c(c2)C(=O)OC3)o1 1.14
CC1(C)Cc2c(sc(NC(=O)C3CC(=O)OC34CCCCC4)c2C#N)CO1 (configuration not stated) 1.01
N#Cc1cc2c([nH]c1=S)CCCCCC2 1.41
O=C(N/N=C/C=C/c1ccco1)c1ccco1 1.09
COCc1[nH]nc2c1C1(CCOC1C)C(C#N)=C(N)O2 (configuration not stated) 1.13
O=C1NCCN1C(=O)C12CC3CC(CC(C3)C1)C2 1.33
CCN(CC)c1nc(C#N)nc(N2CCOCC2)n1 1.21
OCCSc1nc2ccccc2s1 1.2
CN(C)c1nc(N)nc(Cn2ccnc2)n1 1.17
Cc1ccc(-c2nnc(CSC3CCS(=O)(=O)C3)o2)o1 (configuration not stated) 1.16
N#Cc1c(SCC(=O)O)sc2c(O)nc(=O)[nH]c12 1.39
CC(C)(C)OC(=O)N1C(N)=C(C#N)C2(CCOCC2)c2nc(C(F)(F)F)[nH]c21 0.976
CCCCOCC(O)CN1CCCC1 (configuration not stated) 1.2
CCCc1cc(=S)sc(N)n1 0.918
O=C(N/N=C\C=N\NC(=O)c1cccs1)c1cccs1 0.779
OCC1(CO)COC(c2ccccc2)=N1 1.22
CCOC(=O)C1=NOC(Cc2c(Br)c(OC)c3c(c2OC)OCO3)C1 (configuration not stated) 1.26
C=C1N(C)c2ccc([N+](=O)[O-])cc2C1(C)C 1.04
CC(C)(C)S(=O)(=O)c1ccc(C(=O)O)s1 1.35
O=c1nc(O)c2sc3nc4c(c(C(F)(F)F)c3c2[nH]1)CCC4 1.29
COc1cc(/N=C\c2cc(Cl)cc(Cl)c2O)c(OC)cc1Cl 1.14
CCOC(=O)COc1nsnc1N1CCOCC1 1.16
Cc1cc(C)n2[nH]c(=O)c([N+](=O)[O-])c2n1 1.24
CCOC(=O)c1c(N)no[n+]1[O-] 1.43
CCCCCn1cnc2sc3c(c2c1=O)CCC(C)C3 (configuration not stated) 1.42
Cc1ccsc1C(C1=C(O)CC(C)(C)CC1=O)C1C(=O)CC(C)(C)CC1=O (configuration not stated) 1.1
c1ccc2ncc(-n3cnnn3)cc2c1 1.1
Cc1ccc(/C=N\n2c(S)nnc2C2CCCCC2)s1 1.02
O=C(C1=C(O)C(=O)N(CCCN2CCOCC2)C1c1cccs1)c1cccs1 (configuration not stated) 1.2
CCSc1sc2c(O)nc(=O)[nH]c2c1C#N 1.11
Oc1ccc(Br)cc1/C=N\c1ccc(Cl)cn1 0.916
CC(C)C1C(=S)N(c2ccccc2)N=C1O (configuration not stated) 1.18
NC(=S)C12CC3CC(CC(C3)C1)C2 1.33
COc1cc(OC)c2c(c1)C(=O)N(C1CC1)C(=O)C2=O 1.09
N#Cc1c(C(F)(F)F)cc(O)[nH]c1=S 1.18
O=c1[nH]cnc2c1nc(N1CCN(CCO)CC1)n2C1OC(CO)C(O)C1O (configuration not stated) 0.996
Cc1nn(C)cc1C1CC(C(F)(F)F)n2nccc2N1 (configuration not stated) 1.29
CCn1ccc(/C=C2\CC/C(=C\c3ccn(CC)n3)C2=O)n1 1.18
NCc1csc2c1CCCC2 1.33
N#CC1=C(S)N[C@H](c2cccnc2)[C@@](C#N)(C(N)=S)[C@H]1c1cccnc1 1.24
Nc1ccc(F)c(-n2cnnn2)c1 1.21
Cn1cnc2c(ncn2C2OC(CO)C(O)C2O)c1=N (configuration not stated) 1.21
C/C(=N\c1ccc(/N=N\c2ccccc2)cc1)N(C)C.Cl 1.17
CC(C)(C)N(CCO)C(=O)C(=O)N(CCO)C(C)(C)C 1.03
c1ccc(-c2noc(CN3CCN(C(c4ccccc4)c4ccccc4)CC3)n2)cc1 1.28
O=c1cc(O)c2sc3nc4c(c(C(F)(F)F)c3c2[nH]1)CCC4 1.23
CN1C(=O)C(Cc2cnc[nH]2)NC1=S (configuration not stated) 0.989
O=C1NC2(CCCCC2)NC2=C1CCC2 1.31
CCOC(=O)c1c(NC(=O)C(C)(C)C)sc(C(C)=O)c1C 1.33
SC1=NC2(CCCCC2)C2=C(CCCC2)N1 1.01
O=S(=O)(Nc1cccc(F)c1)c1ccc2c(c1)OCCO2 1.21
CC(C)(C)c1cc2c(c(C(C)(C)C)c1)OC(c1ccc([N+](=O)[O-])cc1)N2 (configuration not stated) 1.28
Cc1cc(NC(=O)c2ccco2)no1 0.939
n1c(c(NC(C2C(C(OC\C(=C(\Cl)Cl)Cl)=O)CC=CC2)=O)cnc1OC)OC (configuration not stated) 1.18
Cc1nc(C(N)=O)c(N)n1C 0.952
CC1(C)CC(NC(=O)C(=O)NC2CC(C)(C)NC(C)(C)C2)CC(C)(C)N1 1.52
Clc1cccc(Cl)c1-c1noc(CSc2nc3ccccc3o2)n1 1.21
CN1CC2=C(OC(N)=C(C#N)C2c2cccs2)/C(=C/c2cccs2)C1 (configuration not stated) 1.12

Ordered by count of non-hydrogen atoms (low to high): 7 of the compounds above.
cell-surface Lgr5 expression, inactive:
CCN1CCC(=O)C(C)C1C (configuration not stated) 1.3
CCCCOCC(O)CN1CCCC1 (configuration not stated) 1.2
O=C1NC2(CCCCC2)NC2=C1CCC2 1.31
CC1(C)OC(=O)N(CCCC(=O)[O-])C1(C)O (configuration not stated) 1.33
N#CCSc1nnc2c(n1)[nH]c1ccccc12 1.1
CCOC(=O)c1c(NC(=O)C(C)(C)C)sc(C(C)=O)c1C 1.33
CC(C)(C)c1cc2c(c(C(C)(C)C)c1)OC(c1ccc([N+](=O)[O-])cc1)N2 (configuration not stated) 1.28
